The source of these data is the supplement of paper PMC10849652.

Protein sequences, listed by entry. Tags and fused reporters are not part of them. Lines headed by an entry give the natural chain unless they say otherwise; changes in a name come on top.
UniProt Q9NTX5: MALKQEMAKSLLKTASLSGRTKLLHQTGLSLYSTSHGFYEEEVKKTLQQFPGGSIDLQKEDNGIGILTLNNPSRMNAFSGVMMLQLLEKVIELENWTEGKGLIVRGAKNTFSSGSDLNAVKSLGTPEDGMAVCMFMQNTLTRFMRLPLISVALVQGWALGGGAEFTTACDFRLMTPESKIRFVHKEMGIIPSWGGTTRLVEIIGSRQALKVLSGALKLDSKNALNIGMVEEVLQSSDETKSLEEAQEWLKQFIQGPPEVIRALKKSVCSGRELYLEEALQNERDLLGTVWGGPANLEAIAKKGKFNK
UniProt Q96EY1: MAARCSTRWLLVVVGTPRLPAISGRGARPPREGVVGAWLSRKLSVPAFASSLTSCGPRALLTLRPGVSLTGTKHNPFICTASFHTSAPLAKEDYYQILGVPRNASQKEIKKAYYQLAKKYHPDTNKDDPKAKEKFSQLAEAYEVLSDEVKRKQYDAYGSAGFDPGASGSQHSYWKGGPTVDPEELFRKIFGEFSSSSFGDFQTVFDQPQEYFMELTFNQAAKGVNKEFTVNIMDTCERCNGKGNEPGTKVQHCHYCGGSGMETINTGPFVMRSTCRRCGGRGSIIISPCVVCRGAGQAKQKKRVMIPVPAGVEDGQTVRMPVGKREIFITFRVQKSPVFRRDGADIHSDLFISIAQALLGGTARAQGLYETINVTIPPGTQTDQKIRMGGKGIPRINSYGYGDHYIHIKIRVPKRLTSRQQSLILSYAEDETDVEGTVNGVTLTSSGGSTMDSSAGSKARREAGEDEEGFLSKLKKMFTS
UniProt Q9BTV6: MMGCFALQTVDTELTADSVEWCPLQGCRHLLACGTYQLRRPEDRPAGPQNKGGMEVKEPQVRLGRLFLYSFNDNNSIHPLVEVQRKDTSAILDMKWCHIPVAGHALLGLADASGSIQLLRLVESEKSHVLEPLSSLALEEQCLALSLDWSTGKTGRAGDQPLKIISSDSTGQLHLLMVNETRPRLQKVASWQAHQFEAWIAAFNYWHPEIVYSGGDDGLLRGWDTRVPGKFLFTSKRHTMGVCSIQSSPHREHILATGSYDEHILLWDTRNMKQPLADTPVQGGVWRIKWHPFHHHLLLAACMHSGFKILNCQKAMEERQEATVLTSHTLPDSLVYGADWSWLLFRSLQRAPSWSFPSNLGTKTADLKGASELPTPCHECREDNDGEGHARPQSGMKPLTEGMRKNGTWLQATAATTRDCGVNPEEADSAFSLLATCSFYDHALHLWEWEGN
UniProt Q9P2X0: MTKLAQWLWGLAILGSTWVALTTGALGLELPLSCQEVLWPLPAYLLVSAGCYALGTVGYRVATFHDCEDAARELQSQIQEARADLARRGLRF
UniProt Q5JPH6: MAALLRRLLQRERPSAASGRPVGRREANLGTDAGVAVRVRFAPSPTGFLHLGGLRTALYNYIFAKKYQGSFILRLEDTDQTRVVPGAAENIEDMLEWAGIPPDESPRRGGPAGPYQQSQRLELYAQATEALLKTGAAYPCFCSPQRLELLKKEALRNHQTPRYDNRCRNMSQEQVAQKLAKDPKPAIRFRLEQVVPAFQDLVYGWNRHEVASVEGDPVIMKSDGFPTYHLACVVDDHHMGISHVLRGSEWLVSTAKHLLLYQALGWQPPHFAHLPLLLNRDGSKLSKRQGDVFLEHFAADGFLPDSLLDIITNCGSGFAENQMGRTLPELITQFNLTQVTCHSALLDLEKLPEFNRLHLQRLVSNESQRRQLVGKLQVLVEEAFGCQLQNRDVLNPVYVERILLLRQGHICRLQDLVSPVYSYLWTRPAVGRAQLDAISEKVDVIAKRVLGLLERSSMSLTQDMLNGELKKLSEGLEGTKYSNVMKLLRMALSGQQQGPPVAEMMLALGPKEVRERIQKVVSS
UniProt O60762: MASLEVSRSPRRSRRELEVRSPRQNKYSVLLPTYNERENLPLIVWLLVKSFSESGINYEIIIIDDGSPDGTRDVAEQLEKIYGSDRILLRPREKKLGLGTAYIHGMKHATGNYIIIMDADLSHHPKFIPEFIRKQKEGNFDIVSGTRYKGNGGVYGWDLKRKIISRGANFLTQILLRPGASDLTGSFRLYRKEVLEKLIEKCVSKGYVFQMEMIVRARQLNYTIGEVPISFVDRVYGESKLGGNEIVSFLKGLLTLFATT
UniProt O60869: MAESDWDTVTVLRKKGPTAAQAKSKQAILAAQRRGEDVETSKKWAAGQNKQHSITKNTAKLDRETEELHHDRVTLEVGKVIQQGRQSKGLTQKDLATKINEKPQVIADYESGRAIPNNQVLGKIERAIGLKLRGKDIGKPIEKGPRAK
UniProt Q92611: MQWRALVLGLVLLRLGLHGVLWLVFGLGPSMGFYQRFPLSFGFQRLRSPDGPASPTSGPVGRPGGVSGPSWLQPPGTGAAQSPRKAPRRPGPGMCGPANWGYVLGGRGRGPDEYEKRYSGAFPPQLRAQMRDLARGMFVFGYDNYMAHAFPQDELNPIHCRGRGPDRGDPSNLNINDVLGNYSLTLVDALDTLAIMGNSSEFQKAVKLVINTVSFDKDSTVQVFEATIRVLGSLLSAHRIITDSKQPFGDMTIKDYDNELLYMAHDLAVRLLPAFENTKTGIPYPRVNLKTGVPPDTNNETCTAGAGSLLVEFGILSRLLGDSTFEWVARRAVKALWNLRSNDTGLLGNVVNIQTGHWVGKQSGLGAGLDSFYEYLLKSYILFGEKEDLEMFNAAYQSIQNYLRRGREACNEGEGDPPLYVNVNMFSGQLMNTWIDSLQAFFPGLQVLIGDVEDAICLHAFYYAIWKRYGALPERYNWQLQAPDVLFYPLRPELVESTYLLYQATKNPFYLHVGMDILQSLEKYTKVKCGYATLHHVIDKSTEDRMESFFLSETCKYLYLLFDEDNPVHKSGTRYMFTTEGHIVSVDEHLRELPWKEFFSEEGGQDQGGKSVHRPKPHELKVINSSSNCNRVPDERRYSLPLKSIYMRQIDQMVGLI
UniProt Q9UDY4: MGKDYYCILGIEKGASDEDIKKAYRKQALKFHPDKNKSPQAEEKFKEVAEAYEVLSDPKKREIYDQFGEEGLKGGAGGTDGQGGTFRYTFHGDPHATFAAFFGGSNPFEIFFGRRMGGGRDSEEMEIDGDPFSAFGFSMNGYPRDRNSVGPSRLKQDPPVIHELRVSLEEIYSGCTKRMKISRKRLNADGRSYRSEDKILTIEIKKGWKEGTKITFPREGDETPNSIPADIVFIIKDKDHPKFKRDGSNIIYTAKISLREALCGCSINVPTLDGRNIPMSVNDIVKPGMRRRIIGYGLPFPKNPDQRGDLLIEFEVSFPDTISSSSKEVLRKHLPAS
UniProt Q15125: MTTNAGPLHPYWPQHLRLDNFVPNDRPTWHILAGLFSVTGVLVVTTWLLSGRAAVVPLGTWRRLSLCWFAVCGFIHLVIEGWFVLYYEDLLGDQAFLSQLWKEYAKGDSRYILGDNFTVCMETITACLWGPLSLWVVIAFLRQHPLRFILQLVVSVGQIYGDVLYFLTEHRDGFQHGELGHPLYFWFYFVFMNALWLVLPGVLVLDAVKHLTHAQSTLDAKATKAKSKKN
UniProt Q92785, whole entry, looked up: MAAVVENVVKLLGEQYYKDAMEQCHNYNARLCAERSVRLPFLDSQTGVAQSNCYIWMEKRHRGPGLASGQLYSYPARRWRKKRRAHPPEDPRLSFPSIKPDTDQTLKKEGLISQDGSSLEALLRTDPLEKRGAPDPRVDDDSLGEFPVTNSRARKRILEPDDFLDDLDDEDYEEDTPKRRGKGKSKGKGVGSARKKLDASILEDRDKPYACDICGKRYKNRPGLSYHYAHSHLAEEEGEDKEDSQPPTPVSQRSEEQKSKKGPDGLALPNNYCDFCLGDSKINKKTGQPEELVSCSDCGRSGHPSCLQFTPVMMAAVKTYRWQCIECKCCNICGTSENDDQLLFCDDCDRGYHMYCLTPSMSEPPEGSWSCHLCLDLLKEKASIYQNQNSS
UniProt O95620: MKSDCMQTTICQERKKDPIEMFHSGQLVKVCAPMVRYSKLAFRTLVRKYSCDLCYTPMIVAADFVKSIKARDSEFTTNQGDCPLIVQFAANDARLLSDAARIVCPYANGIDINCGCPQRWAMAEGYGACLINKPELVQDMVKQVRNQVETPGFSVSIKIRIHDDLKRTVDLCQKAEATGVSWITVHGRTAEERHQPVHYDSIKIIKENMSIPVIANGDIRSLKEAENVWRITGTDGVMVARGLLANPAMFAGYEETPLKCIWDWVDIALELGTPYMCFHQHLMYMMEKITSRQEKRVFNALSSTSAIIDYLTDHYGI
UniProt Q01658: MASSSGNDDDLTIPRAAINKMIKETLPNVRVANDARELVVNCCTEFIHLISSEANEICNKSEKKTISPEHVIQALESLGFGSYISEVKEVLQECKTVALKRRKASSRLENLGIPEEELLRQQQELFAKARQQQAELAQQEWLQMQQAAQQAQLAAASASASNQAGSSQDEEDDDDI
UniProt Q9UNI6, whole entry, looked up: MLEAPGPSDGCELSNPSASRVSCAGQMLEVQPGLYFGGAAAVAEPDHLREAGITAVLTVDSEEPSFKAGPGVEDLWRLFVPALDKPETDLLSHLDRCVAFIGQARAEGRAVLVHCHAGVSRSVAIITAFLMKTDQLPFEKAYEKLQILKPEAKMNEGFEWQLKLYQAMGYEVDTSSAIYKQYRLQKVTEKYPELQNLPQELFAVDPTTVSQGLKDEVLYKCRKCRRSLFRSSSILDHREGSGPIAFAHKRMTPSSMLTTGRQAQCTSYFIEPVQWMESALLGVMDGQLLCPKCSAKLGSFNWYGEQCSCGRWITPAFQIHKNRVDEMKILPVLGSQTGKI
UniProt Q9C005, whole entry, looked up: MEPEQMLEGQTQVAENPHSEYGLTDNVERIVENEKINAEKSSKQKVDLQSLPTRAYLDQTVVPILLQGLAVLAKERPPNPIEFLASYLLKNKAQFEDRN
UniProt P26358: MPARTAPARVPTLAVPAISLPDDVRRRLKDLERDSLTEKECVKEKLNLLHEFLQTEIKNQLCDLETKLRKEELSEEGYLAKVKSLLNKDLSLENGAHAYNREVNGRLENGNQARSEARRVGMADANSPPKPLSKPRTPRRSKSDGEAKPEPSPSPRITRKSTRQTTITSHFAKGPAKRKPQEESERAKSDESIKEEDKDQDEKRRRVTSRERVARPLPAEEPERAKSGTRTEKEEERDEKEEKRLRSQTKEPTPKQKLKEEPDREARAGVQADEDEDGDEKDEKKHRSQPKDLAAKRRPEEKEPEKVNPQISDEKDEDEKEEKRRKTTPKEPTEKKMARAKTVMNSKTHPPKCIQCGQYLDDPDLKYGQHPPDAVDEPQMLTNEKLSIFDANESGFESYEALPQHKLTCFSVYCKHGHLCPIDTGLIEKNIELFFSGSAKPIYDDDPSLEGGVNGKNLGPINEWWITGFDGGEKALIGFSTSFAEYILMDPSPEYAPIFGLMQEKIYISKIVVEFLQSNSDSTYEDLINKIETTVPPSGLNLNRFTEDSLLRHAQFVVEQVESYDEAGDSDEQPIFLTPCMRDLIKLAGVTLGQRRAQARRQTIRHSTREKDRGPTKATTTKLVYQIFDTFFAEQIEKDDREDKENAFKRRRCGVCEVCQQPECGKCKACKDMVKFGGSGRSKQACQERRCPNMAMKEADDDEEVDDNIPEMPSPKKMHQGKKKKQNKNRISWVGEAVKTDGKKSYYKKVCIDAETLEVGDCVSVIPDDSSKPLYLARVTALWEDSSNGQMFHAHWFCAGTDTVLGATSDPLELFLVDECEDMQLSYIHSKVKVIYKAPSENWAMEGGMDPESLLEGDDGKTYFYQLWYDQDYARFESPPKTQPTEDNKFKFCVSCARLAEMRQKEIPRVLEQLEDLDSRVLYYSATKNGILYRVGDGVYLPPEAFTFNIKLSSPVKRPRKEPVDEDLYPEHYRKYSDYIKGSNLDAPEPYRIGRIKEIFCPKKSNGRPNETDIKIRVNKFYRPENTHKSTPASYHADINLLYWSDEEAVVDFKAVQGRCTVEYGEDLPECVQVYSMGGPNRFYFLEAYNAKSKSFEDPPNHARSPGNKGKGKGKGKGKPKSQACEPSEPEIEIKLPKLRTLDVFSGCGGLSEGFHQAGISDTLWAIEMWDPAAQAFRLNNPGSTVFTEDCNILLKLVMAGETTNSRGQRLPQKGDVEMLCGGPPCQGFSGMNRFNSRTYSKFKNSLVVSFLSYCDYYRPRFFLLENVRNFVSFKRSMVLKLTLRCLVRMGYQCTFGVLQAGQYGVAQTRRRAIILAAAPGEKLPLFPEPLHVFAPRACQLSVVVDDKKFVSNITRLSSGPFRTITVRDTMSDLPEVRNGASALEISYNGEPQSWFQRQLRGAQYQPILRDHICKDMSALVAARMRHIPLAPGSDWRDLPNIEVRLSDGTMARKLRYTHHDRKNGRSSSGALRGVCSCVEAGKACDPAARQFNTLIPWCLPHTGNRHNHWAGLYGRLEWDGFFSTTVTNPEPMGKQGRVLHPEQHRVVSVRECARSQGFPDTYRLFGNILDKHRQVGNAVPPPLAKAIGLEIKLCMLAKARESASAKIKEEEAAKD

Some of the results follow.

Compound in this assay: CCCCN(Cc1ccc(C(=O)NO)cc1)C(=O)Nc1ccccc1 [Nexturastat A]
The assay is described as follows: log2 fold change, soluble protein after heating vs DMSO (PISA); higher = thermal stabilisation; K562 cells, 10 uM, 30 min; active = over 0.2 and 3.5 SD of the protein, either way, in both replicates (recomputed). The procedure, abridged:
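K562 cells at 2×10^6 cells/mL were exposed to 10 μM compound for 30 min, then aliquots were heated for 3 min across 48°C-58°C, pooled, and extracted in PBS containing 0.5% NP-40 at 4°C. The supernatant after 21,000xg for 90 min was taken as soluble protein and measured by TMTpro 16plex LC-MS/MS with channel sums equalised. Thermal stability is reported relative to control samples, with values from duplicates. Fold changes are given on a log2 scale.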
Turning to ECHDC1 (UniProt Q9NTX5), the log2 fold change is inactive: -0.121.
With DNAJA3 (UniProt Q96EY1), the log2 fold change is inactive: 0.205.
The value for DPH7 (UniProt Q9BTV6) was inactive: -0.095; that for DPM3 isoform 2 (UniProt Q9P2X0) was inactive: -0.065.
Take EARS2 isoform 2 (UniProt Q5JPH6): the log2 fold change was inactive: -0.045.
The result for DST (UniProt Q03001) reads inactive: -0.007.
The value for DPM1 (UniProt O60762) was inactive: -0.022; that for ECE1 (UniProt P42892) was inactive: 0.085.
For EDF1 (UniProt O60869), the log2 fold change was inactive: -0.076.
Regarding DPY19L4 (UniProt Q7Z388), the log2 fold change was inactive: -0.054.
DNAJB6 (UniProt O75190): the log2 fold change is inactive: 0.09.
The result for EDEM1 (UniProt Q92611) reads inactive: 0.037; that for DNAJB4 (UniProt Q9UDY4), inactive: 0.018; that for EBP (UniProt Q15125), inactive: -0.067.
The result for DUT (UniProt P33316) reads inactive: -0.103; that for DPF2 (UniProt Q92785), inactive: 0.1; that for EDARADD (UniProt Q8WWZ3), inactive: 0.057.
Turning to DUS4L (UniProt O95620), the log2 fold change is inactive: 0.187.
For the target DR1 (UniProt Q01658), the log2 fold change was inactive: -0.062.
For DUSP12 (UniProt Q9UNI6), the log2 fold change is inactive: -0.012.
In the case of EAF1 (UniProt Q96JC9), the log2 fold change is inactive: -0.104.
The result for DPH1 (UniProt Q9BZG8) reads inactive: -0.06; that for DPY30 (UniProt Q9C005), inactive: 0.138; that for DNMT1 isoform 2 (UniProt P26358), inactive: 0.007.
